Reference: paper PMC9672452
No constants are given. Whether binding was seen depends on the method and setting. Some entries that bind do so weakly or less than the wild type.

Chains of the proteins cited; added tags and fusions are not shown. Lines headed by an entry give the natural chain unless they say otherwise; changes in a name come on top. A line that says so, or that is headed by a name, gives the form on record, which may keep a tag or linker. Residues count along the entry.
full-length human NOTCH1 D464N (EGF12) (P46531, form named): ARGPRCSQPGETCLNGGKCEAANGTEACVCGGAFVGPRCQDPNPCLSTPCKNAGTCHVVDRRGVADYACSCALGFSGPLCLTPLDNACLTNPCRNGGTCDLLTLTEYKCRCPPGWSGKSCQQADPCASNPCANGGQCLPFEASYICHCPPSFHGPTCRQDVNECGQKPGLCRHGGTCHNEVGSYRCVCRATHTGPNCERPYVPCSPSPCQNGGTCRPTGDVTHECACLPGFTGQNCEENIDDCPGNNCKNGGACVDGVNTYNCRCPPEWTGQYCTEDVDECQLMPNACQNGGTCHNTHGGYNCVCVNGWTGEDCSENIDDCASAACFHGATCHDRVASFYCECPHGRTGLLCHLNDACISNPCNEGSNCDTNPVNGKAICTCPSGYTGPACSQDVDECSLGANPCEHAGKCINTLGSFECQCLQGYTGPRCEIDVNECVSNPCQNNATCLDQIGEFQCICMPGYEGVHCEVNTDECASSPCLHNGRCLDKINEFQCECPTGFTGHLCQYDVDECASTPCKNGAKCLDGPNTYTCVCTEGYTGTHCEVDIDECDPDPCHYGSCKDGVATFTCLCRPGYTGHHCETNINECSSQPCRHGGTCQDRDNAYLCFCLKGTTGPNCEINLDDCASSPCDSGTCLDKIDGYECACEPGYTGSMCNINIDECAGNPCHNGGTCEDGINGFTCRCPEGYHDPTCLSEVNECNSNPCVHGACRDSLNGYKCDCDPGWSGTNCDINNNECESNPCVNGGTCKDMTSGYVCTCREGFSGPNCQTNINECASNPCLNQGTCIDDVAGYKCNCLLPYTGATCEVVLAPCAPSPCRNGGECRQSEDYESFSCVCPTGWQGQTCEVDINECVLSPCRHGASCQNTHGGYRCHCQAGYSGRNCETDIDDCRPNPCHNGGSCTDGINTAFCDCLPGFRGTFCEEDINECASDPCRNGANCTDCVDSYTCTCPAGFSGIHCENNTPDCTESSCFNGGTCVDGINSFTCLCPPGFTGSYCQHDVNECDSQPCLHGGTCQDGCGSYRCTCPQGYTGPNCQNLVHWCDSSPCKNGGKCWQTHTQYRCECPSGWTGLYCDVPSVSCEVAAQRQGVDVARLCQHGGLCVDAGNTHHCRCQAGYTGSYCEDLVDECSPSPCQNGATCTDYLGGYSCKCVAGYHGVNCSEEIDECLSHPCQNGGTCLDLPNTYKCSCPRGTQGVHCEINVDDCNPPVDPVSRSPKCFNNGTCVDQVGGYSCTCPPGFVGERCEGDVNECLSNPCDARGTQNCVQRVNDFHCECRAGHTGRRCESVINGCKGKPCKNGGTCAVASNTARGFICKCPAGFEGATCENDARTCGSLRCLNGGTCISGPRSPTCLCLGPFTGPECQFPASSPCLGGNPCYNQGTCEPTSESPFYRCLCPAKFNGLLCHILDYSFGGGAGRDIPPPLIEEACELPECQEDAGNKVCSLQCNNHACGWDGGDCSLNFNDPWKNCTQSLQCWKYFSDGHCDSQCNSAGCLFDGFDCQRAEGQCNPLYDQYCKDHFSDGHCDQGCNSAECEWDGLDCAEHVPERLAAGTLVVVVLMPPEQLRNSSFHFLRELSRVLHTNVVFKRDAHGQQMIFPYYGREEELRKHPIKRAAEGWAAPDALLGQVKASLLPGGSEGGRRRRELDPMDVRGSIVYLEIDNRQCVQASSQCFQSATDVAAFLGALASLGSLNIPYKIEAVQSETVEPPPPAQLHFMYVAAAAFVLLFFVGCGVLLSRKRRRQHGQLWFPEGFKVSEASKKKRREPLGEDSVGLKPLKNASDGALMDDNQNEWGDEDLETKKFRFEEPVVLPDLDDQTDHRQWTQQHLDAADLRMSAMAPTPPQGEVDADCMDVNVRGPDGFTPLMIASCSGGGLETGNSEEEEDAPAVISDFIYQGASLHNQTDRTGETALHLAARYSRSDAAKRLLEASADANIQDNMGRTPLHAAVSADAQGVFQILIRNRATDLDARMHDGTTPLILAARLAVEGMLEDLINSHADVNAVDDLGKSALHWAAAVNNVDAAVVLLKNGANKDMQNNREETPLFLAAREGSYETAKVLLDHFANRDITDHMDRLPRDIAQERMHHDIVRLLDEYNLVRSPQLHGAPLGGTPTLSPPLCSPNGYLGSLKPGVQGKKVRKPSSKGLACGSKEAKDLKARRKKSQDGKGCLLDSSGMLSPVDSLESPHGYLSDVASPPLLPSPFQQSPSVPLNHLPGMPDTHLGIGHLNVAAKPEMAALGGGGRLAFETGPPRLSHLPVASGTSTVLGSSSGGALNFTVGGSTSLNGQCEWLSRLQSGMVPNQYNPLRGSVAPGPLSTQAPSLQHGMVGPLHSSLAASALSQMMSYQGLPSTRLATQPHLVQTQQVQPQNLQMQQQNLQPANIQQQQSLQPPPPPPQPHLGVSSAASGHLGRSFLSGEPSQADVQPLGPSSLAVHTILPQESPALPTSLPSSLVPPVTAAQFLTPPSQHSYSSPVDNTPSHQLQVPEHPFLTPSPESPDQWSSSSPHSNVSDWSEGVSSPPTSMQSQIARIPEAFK
full-length human NOTCH1 T311P (EGF8) (P46531, form named): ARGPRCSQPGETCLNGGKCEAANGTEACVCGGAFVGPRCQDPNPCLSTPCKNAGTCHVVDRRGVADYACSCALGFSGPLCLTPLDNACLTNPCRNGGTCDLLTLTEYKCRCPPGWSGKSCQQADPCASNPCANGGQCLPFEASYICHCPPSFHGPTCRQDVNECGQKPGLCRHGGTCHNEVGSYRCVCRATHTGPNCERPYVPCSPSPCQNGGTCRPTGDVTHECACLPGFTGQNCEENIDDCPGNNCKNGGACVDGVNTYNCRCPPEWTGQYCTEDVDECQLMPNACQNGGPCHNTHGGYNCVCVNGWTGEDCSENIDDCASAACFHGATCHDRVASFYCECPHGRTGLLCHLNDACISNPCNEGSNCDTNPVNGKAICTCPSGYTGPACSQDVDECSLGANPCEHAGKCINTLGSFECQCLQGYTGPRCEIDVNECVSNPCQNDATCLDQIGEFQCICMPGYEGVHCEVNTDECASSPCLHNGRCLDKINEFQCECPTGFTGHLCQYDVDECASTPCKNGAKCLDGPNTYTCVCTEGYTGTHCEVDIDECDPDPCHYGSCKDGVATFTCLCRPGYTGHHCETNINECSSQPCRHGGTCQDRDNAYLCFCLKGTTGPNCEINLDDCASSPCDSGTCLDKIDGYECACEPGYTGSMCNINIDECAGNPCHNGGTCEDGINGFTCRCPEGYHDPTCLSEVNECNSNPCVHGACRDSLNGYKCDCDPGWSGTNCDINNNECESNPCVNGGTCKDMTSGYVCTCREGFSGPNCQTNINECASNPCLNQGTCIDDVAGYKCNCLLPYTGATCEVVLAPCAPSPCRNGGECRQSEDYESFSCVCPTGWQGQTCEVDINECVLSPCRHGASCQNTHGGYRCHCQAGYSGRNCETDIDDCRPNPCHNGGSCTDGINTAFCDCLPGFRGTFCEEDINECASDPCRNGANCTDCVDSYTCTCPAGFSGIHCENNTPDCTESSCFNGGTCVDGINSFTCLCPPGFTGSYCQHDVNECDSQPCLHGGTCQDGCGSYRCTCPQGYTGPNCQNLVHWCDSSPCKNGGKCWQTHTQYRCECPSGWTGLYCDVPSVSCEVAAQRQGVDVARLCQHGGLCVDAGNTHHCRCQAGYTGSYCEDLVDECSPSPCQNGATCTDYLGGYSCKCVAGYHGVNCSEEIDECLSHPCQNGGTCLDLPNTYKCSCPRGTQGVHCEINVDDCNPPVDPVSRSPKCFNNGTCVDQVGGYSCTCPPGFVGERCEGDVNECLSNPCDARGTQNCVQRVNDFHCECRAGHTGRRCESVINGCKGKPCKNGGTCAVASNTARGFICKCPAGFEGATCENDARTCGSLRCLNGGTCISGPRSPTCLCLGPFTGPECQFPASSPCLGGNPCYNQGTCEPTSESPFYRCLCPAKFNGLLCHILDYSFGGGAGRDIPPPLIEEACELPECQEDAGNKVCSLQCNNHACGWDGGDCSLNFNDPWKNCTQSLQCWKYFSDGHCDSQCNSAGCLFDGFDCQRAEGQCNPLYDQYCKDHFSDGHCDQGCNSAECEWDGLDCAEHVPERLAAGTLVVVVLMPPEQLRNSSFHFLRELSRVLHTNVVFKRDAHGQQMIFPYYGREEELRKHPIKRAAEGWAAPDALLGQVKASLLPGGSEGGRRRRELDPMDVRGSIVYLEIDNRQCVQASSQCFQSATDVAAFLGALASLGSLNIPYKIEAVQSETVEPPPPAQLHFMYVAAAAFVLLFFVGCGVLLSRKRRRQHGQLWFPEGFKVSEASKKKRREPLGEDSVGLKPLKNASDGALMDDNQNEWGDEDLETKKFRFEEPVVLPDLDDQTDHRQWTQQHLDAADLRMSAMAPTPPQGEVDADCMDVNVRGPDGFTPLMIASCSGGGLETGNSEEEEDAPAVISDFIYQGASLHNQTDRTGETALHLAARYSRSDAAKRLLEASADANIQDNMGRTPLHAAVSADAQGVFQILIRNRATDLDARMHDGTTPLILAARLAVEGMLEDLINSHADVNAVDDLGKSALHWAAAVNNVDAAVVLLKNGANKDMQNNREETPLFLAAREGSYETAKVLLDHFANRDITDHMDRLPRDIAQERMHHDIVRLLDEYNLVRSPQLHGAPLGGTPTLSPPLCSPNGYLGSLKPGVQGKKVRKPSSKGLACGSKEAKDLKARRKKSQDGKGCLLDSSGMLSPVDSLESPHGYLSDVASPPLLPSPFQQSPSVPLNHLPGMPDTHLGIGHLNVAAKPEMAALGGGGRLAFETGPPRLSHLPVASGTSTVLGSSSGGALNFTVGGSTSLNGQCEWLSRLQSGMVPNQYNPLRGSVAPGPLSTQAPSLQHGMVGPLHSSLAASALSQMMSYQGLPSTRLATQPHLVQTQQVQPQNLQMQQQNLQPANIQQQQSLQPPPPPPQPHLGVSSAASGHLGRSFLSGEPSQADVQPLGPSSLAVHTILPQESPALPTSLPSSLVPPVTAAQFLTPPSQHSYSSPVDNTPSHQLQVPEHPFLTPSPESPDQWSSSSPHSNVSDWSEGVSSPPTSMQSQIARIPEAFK
UniProt P78504, residues 34-1067: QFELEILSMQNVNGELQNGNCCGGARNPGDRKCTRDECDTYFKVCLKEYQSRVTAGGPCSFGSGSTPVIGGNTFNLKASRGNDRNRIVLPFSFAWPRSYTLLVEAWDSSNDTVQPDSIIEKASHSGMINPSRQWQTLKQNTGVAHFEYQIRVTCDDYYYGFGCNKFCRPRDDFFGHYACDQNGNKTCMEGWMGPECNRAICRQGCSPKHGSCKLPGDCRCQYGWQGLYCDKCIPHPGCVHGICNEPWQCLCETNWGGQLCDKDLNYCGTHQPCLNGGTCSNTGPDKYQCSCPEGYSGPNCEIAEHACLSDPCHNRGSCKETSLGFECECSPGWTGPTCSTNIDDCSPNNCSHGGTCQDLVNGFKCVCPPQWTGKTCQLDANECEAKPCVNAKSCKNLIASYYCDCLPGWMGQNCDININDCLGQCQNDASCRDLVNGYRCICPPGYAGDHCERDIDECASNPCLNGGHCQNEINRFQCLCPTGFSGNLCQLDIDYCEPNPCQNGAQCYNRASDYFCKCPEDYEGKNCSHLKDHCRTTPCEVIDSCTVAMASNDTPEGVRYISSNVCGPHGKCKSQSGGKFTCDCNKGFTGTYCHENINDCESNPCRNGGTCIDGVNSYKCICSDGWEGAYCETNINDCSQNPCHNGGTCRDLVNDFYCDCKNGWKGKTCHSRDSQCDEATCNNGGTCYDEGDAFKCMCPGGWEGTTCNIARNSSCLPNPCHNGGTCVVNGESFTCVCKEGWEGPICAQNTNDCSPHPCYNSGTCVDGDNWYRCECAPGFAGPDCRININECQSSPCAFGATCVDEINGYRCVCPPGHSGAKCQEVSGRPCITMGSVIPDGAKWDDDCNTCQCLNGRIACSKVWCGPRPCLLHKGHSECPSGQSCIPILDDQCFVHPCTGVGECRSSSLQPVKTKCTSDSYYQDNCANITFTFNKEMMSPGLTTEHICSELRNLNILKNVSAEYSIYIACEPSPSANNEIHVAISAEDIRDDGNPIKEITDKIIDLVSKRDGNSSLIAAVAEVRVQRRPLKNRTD

Assays:
Experiment in all cases: flow cytometry on cells; CHO cells transfected with N1 (WT or mutant), EV or LFNG, and RFP; 100 nM ligand-Fc with PE anti-Fc antibody in binding buffer (Hank's balanced salt solution, 1% bovine calf serum, 0.05% azide, 1 mM CaCl2) on ice for 1 h; PE mean fluorescent intensity of RFP-gated cells; only the binder purified
[1] = molecular target: full-length human NOTCH1 D464N (EGF12) (human) (UniProt P46531)
[2] = molecular target: full-length human NOTCH1 T311P (EGF8) (human) (UniProt P46531)
[3] = molecular target: full-length human NOTCH1 G310R (EGF8) (human) (UniProt P46531)
[4] = molecular target: full-length human NOTCH1 G230R (EGF6) (human) (UniProt P46531)
[5] = molecular target: full-length human NOTCH1 G309R (EGF8) (human) (UniProt P46531)
[6] = molecular target: full-length human NOTCH1 G347S (EGF9) (human) (UniProt P46531)
[7] = molecular target: full-length human NOTCH1 T349P (EGF9) (human) (UniProt P46531)

Measured: binding

DLL1-Fc (from UniProt O00548 18-545) (Fc fusion)
binds: all assays above

JAG1-Fc (from UniProt P78504 34-1067) (Fc fusion)
binds: all assays above
